This assay concerns the target T1, aRrp4 of Sulfolobus solfataricus (exosomal subunit) (S. solfataricus (endogenous in S. solfataricus P2)) (UniProt Q9UXC4).
T1 sequence: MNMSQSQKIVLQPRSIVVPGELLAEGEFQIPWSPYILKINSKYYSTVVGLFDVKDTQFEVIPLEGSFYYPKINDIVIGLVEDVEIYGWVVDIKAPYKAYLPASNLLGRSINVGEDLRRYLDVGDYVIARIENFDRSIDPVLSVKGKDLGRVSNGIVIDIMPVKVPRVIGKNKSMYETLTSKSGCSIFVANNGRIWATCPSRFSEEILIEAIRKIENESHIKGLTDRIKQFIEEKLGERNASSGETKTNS
Kind of assay: co-IP; cleared lysate of S. solfataricus cells (with or without UV irradiation; DNase- and RNase-treated) incubated 2 h with Protein-A-Sepharose beads coupled to polyclonal aRrp4-directed antibody; beads washed 10 times with buffer containing 1 M NaCl; SDS-PAGE, transfer to nitrocellulose, Western blot with aRrp41-specific antibodies. For orientation: In western blotting, separated proteins are transferred to a membrane and probed.

These are yes or no findings as the source states them, for the method shown. Binding seen in cells or lysates may run through a third protein. Some results given as binding are weak or reduced against the parent protein; the word gives no strength.

B1: aRrp41 of Sulfolobus solfataricus (exosomal subunit) (protein, UniProt Q9UXC2 1-248)
chain: MREMLQVERPKLILDDGKRTDGRKPDELRSIKIELGVLKNADGSAIFEMGNTKAIAAVYGPKEMHPRHLSLPDRAVLRVRYHMTPFSTDERKNPAPSRREIELSKVIREALESAVLVELFPRTAIDVFTEILQADAGSRLVSLMAASLALADAGIPMRDLIAGVAVGKADGVIILDLNETEDMWGEADMPIAMMPSLNQVTLFQLNGSMTPDEFRQAFDLAVKGINIIYNLEREALKSKYVEFKEEGV
B1: the binding result is recorded as “binds”.
